From article PMC3224144 come the findings set out here.

By UniProt entry, the sequences of proteins in these tests, tags left out.
UniProt P03734: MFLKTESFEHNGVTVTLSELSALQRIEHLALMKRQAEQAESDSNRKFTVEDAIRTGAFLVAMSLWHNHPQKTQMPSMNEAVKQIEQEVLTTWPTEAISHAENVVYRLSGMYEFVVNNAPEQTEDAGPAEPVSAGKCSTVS
UniProt P03710: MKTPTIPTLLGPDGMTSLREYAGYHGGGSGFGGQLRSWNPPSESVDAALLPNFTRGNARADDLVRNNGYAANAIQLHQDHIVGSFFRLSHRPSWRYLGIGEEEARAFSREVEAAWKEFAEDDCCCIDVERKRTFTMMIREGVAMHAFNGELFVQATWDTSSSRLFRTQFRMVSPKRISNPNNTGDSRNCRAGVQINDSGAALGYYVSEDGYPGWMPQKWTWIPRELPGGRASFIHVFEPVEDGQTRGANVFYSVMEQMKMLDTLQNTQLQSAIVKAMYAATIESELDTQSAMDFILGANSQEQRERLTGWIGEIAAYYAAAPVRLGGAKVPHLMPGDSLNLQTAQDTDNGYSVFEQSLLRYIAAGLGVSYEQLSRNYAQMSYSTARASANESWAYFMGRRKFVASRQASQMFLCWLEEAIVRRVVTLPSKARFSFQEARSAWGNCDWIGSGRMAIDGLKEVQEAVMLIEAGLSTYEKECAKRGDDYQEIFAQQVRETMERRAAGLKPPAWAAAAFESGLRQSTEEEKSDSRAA

These are yes or no findings as the source states them, for the method shown. Some binding calls cover weakened binding; strength is not graded here.

Holding throughout (test): two-hybrid; array-based yeast two-hybrid screens; each protein as bait (Gal4 DNA-binding domain) and as prey (Gal4 activation domain), N- and C-terminal fusions; bait-prey vector pairs pDEST32-pDEST22, pGBKT7g-pGADT7g, pGBKT7g-pGADCg, pGBKCg-pGADCg, pGBKCg-pGADT7g; ten configurations a pair; positives retested
The target of one assay is T1, W (bacteriophage lambda) (UniProt P68660).
T1 sequence: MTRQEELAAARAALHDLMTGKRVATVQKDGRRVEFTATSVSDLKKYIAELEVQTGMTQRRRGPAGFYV

In assay [1] the target is G, a tail protein (bacteriophage lambda) (UniProt P03734).
The target in assay [2] is T2, Integrase (Int) (bacteriophage lambda) (UniProt P03700).
T2 sequence: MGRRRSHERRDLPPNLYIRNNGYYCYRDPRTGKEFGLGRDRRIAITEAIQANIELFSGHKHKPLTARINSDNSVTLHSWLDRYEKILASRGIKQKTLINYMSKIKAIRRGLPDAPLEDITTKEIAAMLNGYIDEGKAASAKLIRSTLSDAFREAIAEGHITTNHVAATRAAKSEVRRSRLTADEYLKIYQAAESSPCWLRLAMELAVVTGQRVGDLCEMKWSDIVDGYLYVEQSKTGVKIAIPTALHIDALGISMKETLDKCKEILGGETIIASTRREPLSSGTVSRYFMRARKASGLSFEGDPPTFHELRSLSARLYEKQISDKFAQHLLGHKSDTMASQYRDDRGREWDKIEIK

In a further assay the target is T3, M (bacteriophage lambda) (UniProt P03737).
T3 sequence: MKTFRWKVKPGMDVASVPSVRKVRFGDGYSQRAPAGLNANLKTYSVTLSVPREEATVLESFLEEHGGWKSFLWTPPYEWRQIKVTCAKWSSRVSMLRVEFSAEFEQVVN

In assay [3] the target is T4, major tail protein V (bacteriophage lambda) (UniProt P03733).
T4 sequence: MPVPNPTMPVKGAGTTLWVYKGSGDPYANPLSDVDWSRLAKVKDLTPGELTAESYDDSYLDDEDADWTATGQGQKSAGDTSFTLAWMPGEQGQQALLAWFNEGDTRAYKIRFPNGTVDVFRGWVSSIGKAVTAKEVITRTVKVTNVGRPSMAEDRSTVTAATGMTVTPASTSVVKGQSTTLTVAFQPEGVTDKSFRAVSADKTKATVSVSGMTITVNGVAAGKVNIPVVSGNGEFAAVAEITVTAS

For assay [4], the target named is Bet (= β, strand annealing protein) (bacteriophage lambda) (UniProt P03698).
Assay [5] deals with T5, DNA packaging protein A (bacteriophage lambda) (UniProt P03708).
T5 sequence: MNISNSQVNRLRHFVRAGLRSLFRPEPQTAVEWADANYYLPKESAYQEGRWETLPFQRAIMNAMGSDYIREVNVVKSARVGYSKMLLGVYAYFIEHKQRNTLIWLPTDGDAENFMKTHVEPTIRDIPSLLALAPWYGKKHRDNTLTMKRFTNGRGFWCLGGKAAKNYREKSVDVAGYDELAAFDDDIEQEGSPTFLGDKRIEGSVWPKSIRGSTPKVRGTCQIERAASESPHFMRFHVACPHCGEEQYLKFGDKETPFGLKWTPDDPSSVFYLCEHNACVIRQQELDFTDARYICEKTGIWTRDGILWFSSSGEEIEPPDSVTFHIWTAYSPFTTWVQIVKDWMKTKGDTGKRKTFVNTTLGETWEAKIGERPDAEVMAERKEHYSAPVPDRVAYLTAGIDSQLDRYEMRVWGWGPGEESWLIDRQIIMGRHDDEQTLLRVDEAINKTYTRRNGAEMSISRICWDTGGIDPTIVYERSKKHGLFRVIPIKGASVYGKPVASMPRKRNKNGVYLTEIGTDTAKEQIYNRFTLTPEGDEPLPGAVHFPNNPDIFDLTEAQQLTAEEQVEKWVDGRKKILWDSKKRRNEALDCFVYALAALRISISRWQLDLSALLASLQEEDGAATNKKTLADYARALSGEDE

Assay [6] concerns the target T6, antiterminator N (bacteriophage lambda) (UniProt P03045).
T6 sequence: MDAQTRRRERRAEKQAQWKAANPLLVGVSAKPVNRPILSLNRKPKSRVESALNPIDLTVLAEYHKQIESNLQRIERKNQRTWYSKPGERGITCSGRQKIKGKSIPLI

Compound in assay [7]: T7, P (bacteriophage lambda) (UniProt P03689)
T7 sequence: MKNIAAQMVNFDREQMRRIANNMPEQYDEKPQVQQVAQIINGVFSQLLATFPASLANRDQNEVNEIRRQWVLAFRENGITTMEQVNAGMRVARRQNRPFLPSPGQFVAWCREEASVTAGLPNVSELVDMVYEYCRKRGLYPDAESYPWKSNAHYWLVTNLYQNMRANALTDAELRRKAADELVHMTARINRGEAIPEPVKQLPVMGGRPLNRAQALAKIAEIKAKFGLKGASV

Assay [8] addresses T8, CIII (bacteriophage lambda), P03044.
T8 chain: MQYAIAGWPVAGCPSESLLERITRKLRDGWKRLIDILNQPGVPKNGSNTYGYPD
The following applies: remark: other sources report otherwise.

Assay [9] addresses T9, RexB (bacteriophage lambda) (UniProt P03759).
T9 sequence: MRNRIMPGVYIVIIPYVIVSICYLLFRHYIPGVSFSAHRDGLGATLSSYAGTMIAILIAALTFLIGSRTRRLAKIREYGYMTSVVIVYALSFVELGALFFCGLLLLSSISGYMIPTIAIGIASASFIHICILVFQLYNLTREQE

For assay [10], the target named is T10, Cro (bacteriophage lambda), P03040.
T10 chain: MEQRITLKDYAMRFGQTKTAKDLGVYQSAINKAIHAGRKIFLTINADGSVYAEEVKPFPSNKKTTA
The note with it: remark: other sources report otherwise.

As for “portal protein B (from UniProt P03710 1-533)”, in the assay with W (bacteriophage lambda), the binding result is “binds”.
Consider “G, a tail protein (from UniProt P03734 1-140)”, for which the binding result (in assay [1]; in assay [2]; in the assay with M (bacteriophage lambda); in assay [3]) was “binds” in each case.

B1: Bet (= β, strand annealing protein) (protein, UniProt P03698 1-261)
chain: MSTALATLAGKLAERVGMDSVDPQELITTLRQTAFKGDASDAQFIALLIVANQYGLNPWTKEIYAFPDKQNGIVPVVGVDGWSRIINENQQFDGMDFEQDNESCTCRIYRKDRNHPICVTEWMDECRREPFKTREGREITGPWQSHPKRMLRHKAMIQCARLAFGFAGIYDKDEAERIVENTAYTAERQPERDITPVNDETMQEINTLLIALDKTWDDDLLPLCSQIFRRDIRASSELTQAEAVKALGFLKQKAAEQKVAA
Take B1: the binding entry in assay [4], in assay [5], in assay [2], in [6] and in assay [7] was “binds” throughout.

B2: CIII, P03044 1-54 (protein)
chain: MQYAIAGWPVAGCPSESLLERITRKLRDGWKRLIDILNQPGVPKNGSNTYGYPD
With B2, in [8], the binding entry is recorded as “no binding”.

B3: DNA packaging protein A (protein, UniProt P03708 1-641)
chain: MNISNSQVNRLRHFVRAGLRSLFRPEPQTAVEWADANYYLPKESAYQEGRWETLPFQRAIMNAMGSDYIREVNVVKSARVGYSKMLLGVYAYFIEHKQRNTLIWLPTDGDAENFMKTHVEPTIRDIPSLLALAPWYGKKHRDNTLTMKRFTNGRGFWCLGGKAAKNYREKSVDVAGYDELAAFDDDIEQEGSPTFLGDKRIEGSVWPKSIRGSTPKVRGTCQIERAASESPHFMRFHVACPHCGEEQYLKFGDKETPFGLKWTPDDPSSVFYLCEHNACVIRQQELDFTDARYICEKTGIWTRDGILWFSSSGEEIEPPDSVTFHIWTAYSPFTTWVQIVKDWMKTKGDTGKRKTFVNTTLGETWEAKIGERPDAEVMAERKEHYSAPVPDRVAYLTAGIDSQLDRYEMRVWGWGPGEESWLIDRQIIMGRHDDEQTLLRVDEAINKTYTRRNGAEMSISRICWDTGGIDPTIVYERSKKHGLFRVIPIKGASVYGKPVASMPRKRNKNGVYLTEIGTDTAKEQIYNRFTLTPEGDEPLPGAVHFPNNPDIFDLTEAQQLTAEEQVEKWVDGRKKILWDSKKRRNEALDCFVYALAALRISISRWQLDLSALLASLQEEDGAATNKKTLADYARALSGEDE
Regarding B3, the binding entry in [5], in assay [2] and in assay [9] was “binds” in each case.

B4: Cro, P03040 1-66 (protein)
chain: MEQRITLKDYAMRFGQTKTAKDLGVYQSAINKAIHAGRKIFLTINADGSVYAEEVKPFPSNKKTTA
Turning to B4, in [10], the binding entry is “no binding”.
